Data source: PubChem BioAssay AID1259424 (University of Nebraska Medical Center, 2018)

- Assay: 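Find knockdowns that reproduce the expression shifts seen after KSR1 loss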 (primary screen)
- System: human HCT116 colon cancer cells
- Reagent: siRNA pool against human genes, 50 nM
- Measured: 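Log2 levels of six mRNAs (branched-DNA multiplex), adjusted by two reference genes and the non-targeting median, then scored against the average KSR1 knockdown pattern as Pearson r and euclidean distance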
- Direction: mean correlation with KSR1 profile: higher = expression change more like KSR1 knockdown
In all, the deposit lists about 14,000 reagents; this is an unselected part. 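Higher correlation or smaller distance means closer resemblance to KSR1 loss; control wells, including KSR1 knockdowns, recur on many plates.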 Not all columns of the deposit are shown. Not given: the time to read-out.

gene	mean correlation with KSR1 profile
ANGPTL6	0.731
PRSS2	0.339
ACO1	-0.458
ZFP37	-0.116
PCGF6	0.662
SLC8B1	0.613
COPB2	-0.215
CORO2B	0.102
RSPH14	-0.334
TBC1D8	-0.616
KDSR	0.376
TCEAL3	-0.322
ARHGAP8	0.0124
PAPOLA	-0.189
CTNNB1	-0.0361
BORA	0.562
COQ10B	0.115
PVT1	0.276
ARHGAP44	-0.526
PDK2	-0.129
ZNF14	0.495
NDUFB5	0.14
SLC12A8	0.549
SS18L1	-0.187
SEMA4F	-0.503
PPP3CA	-0.633
SNN	-0.46
CUL4B	-0.444
ZNF669	0.246

10 entries from above, sorted by “mean correlation with KSR1 profile”, lowest first.
gene	mean correlation with KSR1 profile
TBC1D8	-0.616
ACO1	-0.458
RSPH14	-0.334
TCEAL3	-0.322
COPB2	-0.215
ZFP37	-0.116
CORO2B	0.102
KDSR	0.376
SLC8B1	0.613
PCGF6	0.662

Additional records follow.
gene	mean correlation with KSR1 profile
USP14	0.319
UBE4B	0.196
CTDSP1	-0.239
DIPK2B	0.857
MGAT4C	-0.706
GNAI1	0.282
PPP2R3C	0.505
PIGU	0.264
IFI44L	-0.481
ARL14	-0.13
BDH2	-0.798
PHF19	0.0384
SEMA4C	0.516
SLU7	-0.341
TNFAIP2	-0.566
ACP5	-0.831
RAB13	-0.43
C1RL	-0.591
GOLIM4	-0.278
TRIR	-0.112
SLCO2B1	0.293
SLC30A4	-0.502
KLHL15	0.416
SKIC2	0.12
PEF1	-0.258
TAF2	-0.786
KPTN	0.397
RAB5B	0.188
ZPBP	-0.227
DYNLRB1	-0.063
SETD5	-0.416
AMMECR1	0.666
TTC7A	-0.374
CDS1	0.0664
